No constants are given. Whether binding was seen depends on the method and setting. Binding seen in cells or lysates may run through a third protein. Some entries that bind do so weakly or less than the wild type. Where a sequence is shown, tags or fusion partners need not be part of it.
T1: SZY-20-GFP-3xFLAG (C. elegans) (UniProt G5EGU9)
T1 sequence: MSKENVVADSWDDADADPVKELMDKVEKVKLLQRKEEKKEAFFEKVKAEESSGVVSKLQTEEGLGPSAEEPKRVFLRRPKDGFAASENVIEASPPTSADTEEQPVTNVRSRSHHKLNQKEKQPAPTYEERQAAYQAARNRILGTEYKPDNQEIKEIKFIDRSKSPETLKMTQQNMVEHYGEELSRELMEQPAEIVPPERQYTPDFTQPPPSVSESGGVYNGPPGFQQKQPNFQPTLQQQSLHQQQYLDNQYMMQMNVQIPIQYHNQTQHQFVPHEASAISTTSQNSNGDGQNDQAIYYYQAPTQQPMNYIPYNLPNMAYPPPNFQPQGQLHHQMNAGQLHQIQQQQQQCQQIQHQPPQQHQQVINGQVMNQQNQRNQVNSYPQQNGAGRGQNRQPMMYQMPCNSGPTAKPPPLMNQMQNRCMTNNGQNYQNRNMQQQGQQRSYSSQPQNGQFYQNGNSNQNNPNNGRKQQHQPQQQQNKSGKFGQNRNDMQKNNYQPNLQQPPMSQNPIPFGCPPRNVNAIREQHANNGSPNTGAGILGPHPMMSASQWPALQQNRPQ

T2: PAB-1-GFP (C. elegans) (UniProt Q9U302)
T2 sequence: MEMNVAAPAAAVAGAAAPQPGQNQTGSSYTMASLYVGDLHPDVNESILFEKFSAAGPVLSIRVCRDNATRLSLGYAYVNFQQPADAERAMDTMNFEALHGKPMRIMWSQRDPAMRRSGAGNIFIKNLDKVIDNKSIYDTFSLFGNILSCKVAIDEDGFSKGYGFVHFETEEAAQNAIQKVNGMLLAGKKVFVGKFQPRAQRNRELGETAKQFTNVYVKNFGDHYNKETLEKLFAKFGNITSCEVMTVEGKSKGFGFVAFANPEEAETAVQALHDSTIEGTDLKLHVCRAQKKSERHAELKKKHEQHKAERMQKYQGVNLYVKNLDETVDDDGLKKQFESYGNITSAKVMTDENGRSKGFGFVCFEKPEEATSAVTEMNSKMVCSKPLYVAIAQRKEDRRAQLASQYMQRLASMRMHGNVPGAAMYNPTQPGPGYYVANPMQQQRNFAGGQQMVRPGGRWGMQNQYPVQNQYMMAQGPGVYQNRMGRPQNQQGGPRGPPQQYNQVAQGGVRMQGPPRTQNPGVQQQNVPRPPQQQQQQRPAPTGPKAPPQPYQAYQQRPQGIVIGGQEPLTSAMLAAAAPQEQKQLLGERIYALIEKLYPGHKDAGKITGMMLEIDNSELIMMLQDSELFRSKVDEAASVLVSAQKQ

T3: RPN-12-GFP (C. elegans) (UniProt Q23449)
T3 sequence: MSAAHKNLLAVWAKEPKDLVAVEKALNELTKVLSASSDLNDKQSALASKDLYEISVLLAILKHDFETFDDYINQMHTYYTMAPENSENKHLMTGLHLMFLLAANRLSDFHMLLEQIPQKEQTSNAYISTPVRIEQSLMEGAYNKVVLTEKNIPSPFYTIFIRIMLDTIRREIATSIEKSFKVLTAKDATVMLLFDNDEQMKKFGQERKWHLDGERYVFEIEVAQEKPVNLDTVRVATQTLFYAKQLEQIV


Key:
[1] = biological target: T1, SZY-20-GFP-3xFLAG (C. elegans); assay: co-IP; anti-GFP IP from SZY-20-GFP embryonic lysates mixed with N2, szy-20(bs52) or atx-2(ne4297) lysates; western blot
PAB-1-GFP (C. elegans) = biological target: T2, PAB-1-GFP (C. elegans); assay: co-IP; anti-GFP IP from embryonic lysates of strains expressing GFP fused to the C-terminus of SZY-20, PAB-1, ATX-2 or RPN-12; N2 and RPN-12-GFP as negative controls; western blot
RPN-12-GFP (C. elegans) = biological target: T3, RPN-12-GFP (C. elegans); assay: as above

binding [1] | binding (PAB-1-GFP (C. elegans)) | binding (RPN-12-GFP (C. elegans)) | Binder
binds | binds | no binding | SZY-20 (protein, UniProt G5EGU9 1-558) MSKENVVADSWDDADADPVKELMDKVEKVKLLQRKEEKKEAFFEKVKAEESSGVVSKLQTEEGLGPSAEEPKRVFLRRPKDGFAASENVIEASPPTSADTEEQPVTNVRSRSHHKLNQKEKQPAPTYEERQAAYQAARNRILGTEYKPDNQEIKEIKFIDRSKSPETLKMTQQNMVEHYGEELSRELMEQPAEIVPPERQYTPDFTQPPPSVSESGGVYNGPPGFQQKQPNFQPTLQQQSLHQQQYLDNQYMMQMNVQIPIQYHNQTQHQFVPHEASAISTTSQNSNGDGQNDQAIYYYQAPTQQPMNYIPYNLPNMAYPPPNFQPQGQLHHQMNAGQLHQIQQQQQQCQQIQHQPPQQHQQVINGQVMNQQNQRNQVNSYPQQNGAGRGQNRQPMMYQMPCNSGPTAKPPPLMNQMQNRCMTNNGQNYQNRNMQQQGQQRSYSSQPQNGQFYQNGNSNQNNPNNGRKQQHQPQQQQNKSGKFGQNRNDMQKNNYQPNLQQPPMSQNPIPFGCPPRNVNAIREQHANNGSPNTGAGILGPHPMMSASQWPALQQNRPQ
 | binds | no binding | ATX-2 (protein, UniProt G5ED29 1-959) MSTPTGLPALNGDVLSAINDMIGRVIIINTTDKKRYSGVLGAVSQDFDFGMQCVVEITKENENNLLRTESECRDKMVFHYSDIVDFAYVTQEIKKQHAVSKFVTDRQYHGDTPIEGEELQEWNGGEEDGLGGSIEDDVVVAGGQTAARRSNNHNNGTGWSVNDMFAANEKMNVVSTFKEDLTQYTTVEVVGTDEDRARAERLAREIESNSSSKFMANLENDDDERDLDKITRQEDFENGNGRKRNNNSFNQQQQQRRNPNIAPNGQPVNRRAEGLRGDRRNSGSSSANNSRYGAPAAAQQNYSQNQQQQQGQKGYRRQNEENDWQMAKGKGQNQGHDHSFRQQQKQMLDPRPNNNVKPADDKAQSATTATAAAGGSRVTDLKNWGNEFSIATAPKDQAPAVPAGNSGSAWNRGPPSSLVAKGSSNESTPPPTTNGEEAETKKEEAPSTSVDVAAAPVQNVQNDAEKHQEDDNVSVTSENDSVITSKSSSFKFNINAPEFKPRVAPATPTATTPVQNEYHPQQQPHPAMMAPQQGPPAPGMGMVPPHMGGPQNQGQPPMMMWQQTGQQQQGGGGYPQNHQFPIQHVPMQGVPGQMYGPGAATPVTVAQQPNQQHQVPTSAAGGQNHQLRDGEYREKQPLYMPYGPPQMVPVTSQQFYHSQYQGQMQQAAPYQMKMMPQQAPQGAYQQRYQQPQVYMMPPQGQQQQPRYQGPPPPQQQQQQQPQQQQFSGEQSRPQSHPNSQPTTPGPRGELPKMSGAPQNGNMQAESSSNASHSGSTSSQSGQRSGSPPGAVPPPPPPQQQHQQQQHPPHHAPPHVGAPPPQMMQQQQQHIQQYMVMQGPHQMHPQIPNYYQQPQQVFYPMIMPQQMPMQQNQHPQQSLMGERSDQGFPTSGYFDYRTMPNYQQQQQQQQQQMHRQNSLPQQFQGNQGVNPSGQQSGPPPPPPPSQQGTPRDQQHSQSPP
